# Results from patent US8193154B2 (The Board of Trustees of the Leland Stanford Junior …, priority 2007, dated 2012).
# Plain letter strings leave the end groups untold.
# Test: peptide made by a vendor
# Conditions: whole synthesis
sequence,measurement,value
YRSRKYSSWY,purity (crude or final not stated),purity 94%
